Measured values taken from PubChem BioAssay AID493014 (National Center for Advancing Translational Sciences (NCATS), 2011).
The list shows a part of the results. These are further read-outs of the screen, such as a control signal, another cell line or another target. No call is given for them. Most of these compounds were active or inconclusive in the main read-out, so they are no random draw. The note in brackets gives the kind of curve behind each potency; many fits are weak.

Experiment: qHTS Assay to Find Inhibitors of Chronic Active B-Cell Receptor Signaling
Details: ABC-DLBCL IkBa-CBG/CBR reporter, luminescence ratio (green luciferase fused to IkBa over red control in TMD8 lymphoma cells), 4 h
Outline: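 Cell line TMD8 (human ABC DLBCL), stably expressing tet-inducible CBG68-IkBa fusion and CBR; IMDM/0.5% FBS; cpd up to 46 uM; dox induction, 4 h, 37C/5% CO2; dual luminescence; green/red ratio; MG132 control.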

[1] = measured here: CBR red luminescence, cell number
[2] = measured here: IkBa-CBG green luminescence

Cc1nc(C)c(-c2csc(NCc3ccco3)n2)s1
AC50 [1]: 0.461 µM [rising, full curve, poor fit]

Cc1c(NC(=O)OCc2ccccc2)c(=O)n(-c2ccccc2)n1C
AC50 [1]: 2.06 µM [falling, partial curve, poor fit]

COc1ccc(C(CC(=O)c2ccc(C)cc2)Nc2ccc([N+](=O)[O-])cc2)cc1 (centres undefined)
AC50 [1]: 10.3 µM [rising, partial curve, poor fit]

COC(=O)[C@@]12CCCN1[C@H](c1ccc(-c3ccc(Cl)c(Cl)c3)c(OC)c1)[C@H]1C(=O)N(C)C(=O)[C@H]12
AC50 [1]: 11.6 µM [falling, partial curve, poor fit]

O=C(COC(=O)Cc1c(F)cccc1Cl)NC(=O)c1ccccc1
AC50 [1]: 7.08 µM [rising, partial curve]

CCOC(=O)COc1cc(N2C(=O)CSCC2=O)c(Cl)cc1Cl
AC50 [1]: 20 µM [falling, partial curve, poor fit]

CCCC(=O)NC(c1ccc(OC)cc1)c1ccc2cccnc2c1O (centres undefined)
AC50 [1]: 5.01 µM [falling, full curve]

O=C(CSC(=S)N1CCCC1)N(Cc1nnc(-c2ccccc2Cl)o1)C1CC1
AC50 [1]: 23.1 µM [rising, partial curve]
AC50 [2]: 18.4 µM [falling, partial curve, poor fit]

COc1ccccc1CCNS(=O)(=O)c1cn(C)c(=O)n(C)c1=O
AC50 [1]: 12.6 µM [falling, partial curve, poor fit]

CCN(CC)C(=O)[C@H]1CC(CC(=O)NC/C=C(\C)CCC=C(C)C)C(=O)N2CCc3c([nH]c4ccc(OC)cc34)[C@]12C (some centres undefined)
AC50 [1]: 23.1 µM [falling, single point]

Cc1cc(-c2sccc2C)nc(-n2cccc2)n1
AC50 [1]: 11.2 µM [rising, partial curve]

Cc1nnc2sc(SCc3cccc(Cl)c3)nn2c1=O
AC50 [1]: 7.08 µM [falling, partial curve]

Cc1c(C(=O)N/N=C/c2ccc(-c3ccccc3[N+](=O)[O-])o2)sc(N)c1C#N
AC50 [1]: 1.64 µM [falling, partial curve, poor fit]

Cc1nnc(SCCn2c(N3CCN(C)CC3)nc3c2c(=O)[nH]c(=O)n3C)s1
AC50 [1]: 17.8 µM [rising, partial curve, poor fit]

CCOc1ccc(C(C)=O)cc1COC(=O)c1cc([N+](=O)[O-])ccc1N1CCOCC1
AC50 [1]: 3.66 µM [rising, partial curve, poor fit]

CC(C)n1cc(CN2CCCC(CO)(Cc3cccc(Cl)c3)C2)cn1 (centres undefined)
AC50 [1]: 3.55 µM [falling, partial curve, poor fit]

COc1ccc(-c2cn3ccccc3n2)cc1OC
AC50 [1]: 14.1 µM [falling, single point]

CCN(CC(=O)Nc1c(F)cccc1F)C(=O)CCN1C(=O)C2CCCCC2C1=O (centres undefined)
AC50 [1]: 32.6 µM [rising, partial curve, poor fit]

Cc1ccc(NC(=O)[C@H](C)NC(=O)C2CCN(C(=O)[C@H](CC(C)C)NC(=O)OC(C)(C)C)CC2)cc1
AC50 [1]: 15.8 µM [falling, single point]

O=C(CSc1nc2ccccc2c(=O)n1-c1ccccc1Cl)NC1CCS(=O)(=O)C1 (centres undefined)
AC50 [1]: 5.17 µM [rising, single point]

Cc1c(C(=O)Nc2nonc2-c2ccc(F)cc2)oc2ccc(F)cc12
AC50 [1]: 5.62 µM [falling, partial curve]

Cn1c(=O)c([N+](=O)[O-])c(NCc2ccc3c(c2)OCO3)c2ccccc21
AC50 [1]: 10 µM [falling, partial curve, poor fit]

CSC1=NSC2=NC(=O)/C(=C\c3coc4ccccc4c3=O)C(=N)N12
AC50 [1]: 0.231 µM [rising, full curve, poor fit]

Cc1nc2scc(-c3cccs3)c2c(=O)n1CC(=O)O
AC50 [1]: 20.6 µM [falling, partial curve]

Cc1ccc(/C=C2\SC(=S)N(CCCC(=O)Nc3ccccn3)C2=O)cc1
AC50 [1]: 0.447 µM [falling, full curve]

O=C(Nc1ccccc1C(=O)NCc1ccco1)Nc1cccc2ccccc12
AC50 [1]: 0.631 µM [falling, full curve, poor fit]

Cn1c2c(c3ccccc31)CCSC2=O
AC50 [1]: 12.6 µM [rising, partial curve]

Cc1ccc(N2CCN(C3=NC(=O)/C(=C\c4cccs4)S3)CC2)cc1
AC50 [1]: 0.0206 µM [rising, full curve, poor fit]

COc1ccc(Cl)cc1NC(=O)CSc1nc(=O)n(CCN(C)C)c2c1CCCC2
AC50 [1]: 29.1 µM [falling, partial curve, poor fit]

COc1cc([N+](=O)[O-])cc(/C=N/NC(=O)CSc2nnc(-c3ccccc3)n2C)c1O
AC50 [1]: 8.91 µM [rising, partial curve, poor fit]

Cn1c(C(=O)NC2CCCCC2)cc2c(=O)n(C)c3ccccc3c21
AC50 [1]: 29.1 µM [falling, single point]

CC1=NOC(=O)/C1=C\c1ccc(-c2ccccc2Br)o1
AC50 [1]: 35.5 µM [rising, single point]

CCCN(CCC)C(=O)CSc1nc2ccccc2c(=O)n1Cc1ccco1
AC50 [1]: 6.31 µM [falling, full curve]

O=[N+]([O-])c1cc(S(=O)(=O)CCCN2CCOCC2)ccc1F
AC50 [1]: 2.24 µM [rising, full curve]

O=C(Nc1ccccc1C(=O)N/N=C/c1ccc(O)cc1)c1ccccc1
AC50 [1]: 1.26 µM [falling, full curve]
AC50 [2]: 2 µM [rising, partial curve, poor fit]

Cc1cccc(Nc2nc(N)c(C#N)c(CC#N)c2C#N)c1
AC50 [1]: 3.66 µM [falling, partial curve, poor fit]

Cc1cc(C)n(CC(O)CN2c3ccccc3Sc3ccccc32)n1 (centres undefined)
AC50 [1]: 35.5 µM [falling, single point]

Cc1ccc(F)c(N=Cc2c(O)c3ccccc3oc2=O)c1
AC50 [1]: 2.51 µM [falling, full curve]

O=C(NCCN1CCCC1)c1ccc(Cn2c(=S)[nH]c3ccc(Br)cc3c2=O)cc1
AC50 [1]: 12.6 µM [falling, partial curve, poor fit]

O=C(N/N=C/c1cccnc1)c1cccc(NC(=O)c2cccc(Br)c2)c1
AC50 [1]: 35.5 µM [falling, single point]

CCOC(=O)N1CCN(C(=O)c2nn(-c3cc(OC)cc(OC)c3)c(=O)c3ccccc23)CC1
AC50 [1]: 20.6 µM [rising, partial curve, poor fit]

CC(=O)Nc1cccc(Oc2ncnc3scc(-c4ccc(C)cc4)c23)c1
AC50 [1]: 18.4 µM [falling, single point]

CCN(Cc1cnn(C)c1)C(=O)C1CCC(=O)N(CCc2ccc(OC)cc2)C1 (centres undefined)
AC50 [1]: 3.98 µM [falling, full curve, poor fit]

O=C(NC(=S)NNC(=O)c1ccccc1O)c1ccco1
AC50 [1]: 7.31 µM [falling, partial curve]

CSc1nc(-c2ccccc2)nc(N)c1C(C)=O
AC50 [1]: 2.31 µM [falling, full curve, poor fit]

CC(C)C(NC(=O)c1ccco1)C(=O)OCC(=O)Nc1ccc(C(N)=O)cc1 (centres undefined)
AC50 [1]: 20 µM [rising, single point]

CCC(=O)Nc1c(C)n[nH]c1C
AC50 [1]: 5.17 µM [falling, single point]

CSc1nc2ccc(NC(=O)COc3ccccc3F)cc2s1
AC50 [1]: 0.366 µM [rising, full curve]

N#Cc1cccc(-c2cn(S(=O)(=O)c3ccc(Cl)cc3)nc2N)c1
AC50 [1]: 5.8 µM [falling, single point]

O=C(CN1C(=O)/C(=C/c2ccccc2Cl)SC1=S)NC1C=CS(=O)(=O)C1 (centres undefined)
AC50 [1]: 20 µM [falling, single point]

COCc1cc(C)nc(SCC(=O)Nc2cccc(C)c2C)c1C#N
AC50 [1]: 0.517 µM [rising, full curve]

O=C(Nc1cccc(C(F)(F)F)c1)C1CCCN(S(=O)(=O)c2cnc[nH]2)C1 (centres undefined)
AC50 [1]: 35.5 µM [falling, single point]

Cn1c(N)c(C(=O)COC(=O)CCOc2ccc(C(C)(C)C)cc2)c(=O)n(C)c1=O
AC50 [1]: 25.1 µM [falling, single point]

COc1cccc(/C=N/NC(=O)c2cnn(-c3ccccc3)c2N)c1
AC50 [1]: 10 µM [falling, partial curve]

COc1ccccc1/C=N\N=C(\N)c1ccccn1
AC50 [1]: 0.164 µM [falling, full curve]

CCOc1ccc(C(=O)N/N=C/c2cccc3cccnc23)cc1
AC50 [1]: 12.6 µM [falling, partial curve, poor fit]

C[C@H](NC(=O)C1(c2ccccc2)CCN(C(=O)[C@H]2CSCN2C(=O)OC(C)(C)C)CC1)C(=O)O
AC50 [1]: 3.16 µM [falling, single point]

COc1cccc(-c2coc3c(C)c4oc(=O)c(CC(=O)O)c(C)c4cc23)c1
AC50 [1]: 0.708 µM [rising, partial curve, poor fit]

O=C(CC1OC(=O)c2ccccc21)Nc1cc(Cl)ccc1N1CCCC1 (centres undefined)
AC50 [1]: 3.26 µM [falling, partial curve]

C=CCn1c(NS(=O)(=O)c2ccccc2)c(S(=O)(=O)c2ccc(C)cc2)c2nc3ccccc3nc21
AC50 [1]: 7.31 µM [rising, partial curve]
AC50 [2]: 5.8 µM [falling, full curve]

CCC(Sc1ccc(Cl)cc1)C(=O)Nc1nnc(-c2cccc([N+](=O)[O-])c2)s1 (centres undefined)
AC50 [1]: 16.4 µM [rising, partial curve]
